Part of at least one peptide drawing is inferred or uncertain, most often the ends. Ends that are not written are not given here.
Tests used:
Details in all cases: relative to intact monomeric myeloma protein at equal concentration; 15 min preincubation
[1] = system: NEUTROPHIL (PMN) Fc Receptor IgG; experiment: Rosette inhibition assay, IgG-coated ox erythrocytes, fresh human PMNs; format: binding
Description: (§1) The Fc receptor blocking activity of the subject peptides was assessed using well established techniques and procedures. In particular, a rosette assay was employed which uses either monomeric, chemically or heat aggregated human IgG or IgE obtained from human myeloma sera. (Gonzalez-Molina, et al., J. Clin. Invest., 59, 616 (1977); Spiegelberg, et al. in Immunoassays: Clinical Laboratory Techniques for the 1980's (Alan R. Liss: New York, 1980), pp. 287-300). The IgG or IgE is then adsorbed to ox-erythrocytes which has been previously treated with trypsin and pyruvic aldehyde. […] Addition of inhibitor myeloma proteins or inhibitor peptides produced a reproducable reduction of rosette formation, […], phosphate buffered isotonic saline, was used alone as control and then multiplying the calculated quotient by 100.
(§2) Table 1 presents the inhibition observed by representative peptide inhibitors calculated as a percentage of the inhibition observed with intact, monomeric myeloma proteins. […]

[2] = system: MONOCYTE/MACROPHAGE Fc Receptor IgG; experiment: Rosette inhibition assay, IgG-coated ox erythrocytes, monocytes / U937; format: binding, human
Description: as §1, §2

BASOPHIL Fc Receptor IgG = experiment: Rosette inhibition assay, IgG-coated ox erythrocytes, basophils; format: binding, human
Description: as §1, §2

## SVMHEALHNHYTQK
[1]
  Rosette inhibition expressed as percent inhibition by monomeric IgG, neutrophil (PMN) Fc receptor IgG: NS (NS indicates inhibition not significantly different from 0)
[2]
  Rosette inhibition expressed as percent inhibition by monomeric IgG, monocyte/macrophage Fc receptor IgG: NS (NS indicates inhibition not significantly different from 0)
BASOPHIL Fc Receptor IgG
  Rosette inhibition expressed as percent inhibition by monomeric IgG, basophil Fc receptor IgG: NS (NS indicates inhibition not significantly different from 0)
